In US20220177576A1:
Positions count from the first letter of the chain named. These are yes or no findings as the source states them, for the method shown. Some entries that bind do so weakly or less than the wild type. One block for each binder: values may come before it.

Columns and labels:
[1] = target: T1, human TREM2 expressed on HEK293-H6 cells (human) (UniProt Q9NZC2); test: flow cytometry, dose titration on HEK 293 cells expressing human TREM2 (TREM2-expressing HEK)
T1 sequence: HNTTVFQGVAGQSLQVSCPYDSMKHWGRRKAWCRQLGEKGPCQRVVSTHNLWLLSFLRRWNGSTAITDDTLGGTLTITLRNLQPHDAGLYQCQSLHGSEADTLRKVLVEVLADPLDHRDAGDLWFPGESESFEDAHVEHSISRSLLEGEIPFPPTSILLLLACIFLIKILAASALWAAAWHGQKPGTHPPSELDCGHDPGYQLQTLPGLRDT

[2] = target: recombinant human TREM2 ECD (human) (UniProt Q9NZC2); test: SPR (Biacore)
[3] = target: T1, human TREM2 expressed on HEK293-H6 cells (human); test: flow cytometry on HEK293-H6 cells

binding [1]: binds
B1: TREM2 Ab (antibody, human IgG1, kappa, L234A L235A, V domains shown)
VH: EVQLVESGGGLVQPGGSLRLSCAASGFTFTDFYMSWVRQAPGKGLEWVSVIRNKANAYTAGYNPSVKGRFTISRDNSKNTLYLQMNSLRAEDTAVYYCARLTYGFDYWGQGTLVTVSS
VL: DIVMTQTPLSLPVTPGEPASISCQSSKSLLHSTGKTYLNWYLQKPGQSPQLLIYWMSTRASGVPDRFSGSGSGTDFTLKISRVEAEDVGVYYCQQFLEYPFTFGQGTKVEIKR

binding [2]: binds
binding [3]: binds
B2: CL0020188-4 (antibody, V domains shown)
VH: B1 VH with A24G, L45P, V48L, A57G
VL: DIVMTQTPLSLPVTPGEPASISCQSSKSLLHSTGKTYLNWYLQKPGQSPQLLIYWMSTRASGVPDRFSGSGSGTDFTLKISRVEAEDVGVYYCQQFLEYPFTFGQGTKVEIK

binding [2]: binds
binding [3]: binds
B3: CL0020188-2 (antibody, V domains shown)
VH: B1 VH with A24G, L45P, V48L, A57G
VL: B2 VL with T33N
